Results as given in PMC10055520.

Legend:
[1] = molecular target: MYC-tagged Tead3 CT (C-terminal region = YAP-binding domain) (mouse); assay: co-IP; HEK293T cells co-transfected with SFB-Nfatc1 and MYC-tagged full-length or truncated Tead3; RIPA lysate; pulldown with a MYC-specific antibody; blots for MYC and FLAG
[2] = molecular target: MYC-tagged Tead3 NT (N-terminal region = DNA-binding domain, TEA domain) (mouse); assay: as above

- binding [1]: no binding
- binding [2]: binds
B1: SFB-tagged full-length mouse Nfatc1 (protein, UniProt O88942 1-717)
chain: MPNTSFPVPSKFPLGPPAAVCGSGETLRPAPPSGGTMKAAEEEHYSYVSPSVTSTLPLPTAHSALPAACHDLQTSTPGISAVPSANHPPSYGGAVDSGPSGYFLSSGNTRPNGAPTLESPRIEITSYLGLHHGSGQFFHDVEVEDVLPSCKRSPSTATLHLPSLEAYRDPSCLSPASSLSSRSCNSEASSYESNYSYPYASPQTSPWQSPCVSPKTTDPEEGFPRSLGACHLLGSPRHSPSTSPRASITEESWLGARGSRPTSPCNKRKYSLNGRQPSCSPHHSPTPSPHGSPRVSVTEDTWLGNTTQYTSSAIVAAINALTTDSTLDLGDGVPIKSRKTALEHAPSVALKVEPAGEDLGTTPPTSDFPPEEYTFQHLRKGAFCEQYLSVPQASYQWAKPKSLSPTSYMSPSLPALDWQLPSHSGPYELRIEVQPKSHHRAHYETEGSRGAVKASAGGHPIVQLHGYLENEPLTLQLFIGTADDRLLRPHAFYQVHRITGKTVSTTSHEIILSNTKVLEIPLLPENNMRAIIDCAGILKLRNSDIELRKGETDIGRKNTRVRLVFRVHIPQPNGRTLSLQVASNPIECSQRSAQELPLVEKQSTDSYPVIGGKKMVLSGHNFLQDSKVIFVEKAPDGHHVWEMEAKTDRDLCKPNSLVVEIPPFRNQRITSPAQVSFYVCNGKRKRSQYQRFTYLPANGNSVFLTLSSESELRGGFY

No constants are given. Whether binding was seen depends on the method and setting. Binding seen in cells or lysates may run through a third protein. For some assays here: A result given as binding can be weak or reduced; the word gives no strength. Sequences can lack the tags named with a protein.
